In patent US20230047208A1, “RNA Splicing Modulation” (The General Hospital Corporation, priority 2020, published 2023):
The source gives many values for each of these; only a part stands here.

Tested on: wildtype (WT) human fibroblast cell lines
Experiment: Transcriptome-wide splicing by RNA sequencing (RNASeq), exon triplet PSI change;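 on Effect: six WT fibroblast lines treated seven days versus DMSO vehicle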;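 on T-PSI: T-PSI is average treated PSI after seven days of treatment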
Format: cell-based
Design: key to Effect: Exclusion; Inclusion; Unchanged
Text: FIG. 2A provides a representation of an exon triplet. Exon U is upstream of Exon X, which is upstream of Exon D. R1, R2 and R3 represent RNA sequencing (RNASeq) reads spanning the regions between two adjacent exons. UI1, I1X, XI2 and I2D are four regions flanking the four splice sites of the exon-triplet. Each flanking region consists of 25 exonic base pairs and 75 intronic base pairs.
FIG. 2B provides a volcano plot showing the ψ (PSI: Percent Spliced-In) changes in splicing after treatment with Compound (I). Each dot represents one of the 161,097 expressed exon triplets in human fibroblasts. The x axis represents the ψ changes after treatment and the y axis represents the False Discovery Rate (FDR) (log 10 transformed). […] The horizontal dashed line indicates an FDR of 0.1. The dots on the right side of the right vertical dashed line and above the horizontal dashed line represent the exon-triplets with an increase for Exon X inclusion (Δψ≥0.1 and FDR<0.1) while the dots on left side of the left vertical dashed line and above the horizontal dashed line represent an increase for Exon X exclusion (Δψ≤−0.1 and FDR<0.1). Black dots in-between the two vertical dashed lines represent exon-triplets unchanged from the treatment.
In some aspects, analysis is performed on data derived from the assay to measure the magnitude of splicing to determine the amount of exons spliced into an mRNA transcript that is produced in the presence of Compound (I) relative to the amount in the absence of Compound (I) or presence of a negative control. In a preferred aspect, the method utilized is calculation of change in Percent Spliced In (ΔPSI). […] The ΔPSI value is derived from the formula: […]
The values for “a” and “b” represent the number of reads supporting the probability for potential inclusion or exclusion of an exon in an RNA transcript. The “a” value is derived from the number of reads within an exon triplet covering, in 5′ to 3′ order: the last few bases (>1 nucleotide) of an upstream exon operably linked to the first few bases (>1 nucleotide) of a middle exon. The “b” value is derived from the number of reads within an exon triplet covering, in 5′ to 3′ order: the last few bases (>1 nucleotide) of the middle exon operably linked to the first few bases (>1 nucleotide) of a downstream exon. The number of reads will indicate whether the splice junction of a middle exon has been identified as potentially having a CNN Motif(s) by the CNN Model described herein, wherein the inclusion or exclusion of the middle exon may be modulated in the presence of Compound (I) to produce one or more mature RNA isoforms from the gene transcript. The value for “c” represents the number of reads supporting the exclusion of the middle exon.
The effect on splicing modulation and corresponding splice differences toward exon inclusion or exclusion was determined by counting the RNASeq reads covering two splice junctions of exon triplets (three consecutive exons: Exon U, Exon X, Exon D) and the corresponding intervening introns, then comparing the change in Percent Spliced In (ΔPSI or Δψ) of the middle exon (Exon X) after treatment (as shown in FIG. 2A)^52,53. 934 exon triplets were identified showing differential middle exon inclusion or exclusion in response to Compound (I) treatment. Of these, 254 were exon inclusion events (Δψ≥0.1 and FDR<0.1) and 680 were exon exclusion events (Δψ≤−0.1 and FDR<0.1) (as shown in FIG. 2B). […] The splicing results were evaluated by RT-PCR in independent replicate experiments, confirming all the calculated Δψ values. […]

[1] = EIF4A2 Exon 186502751-186502890
[2] = EIF4E2 Exon 233422594-233422728
[3] = EPB41L1 Exon 34807683-34807766, Intron1 34802363-34807682
[4] = EPB41L1 Exon 34807683-34807766, Intron1 34806885-34807682
[5] = EPB41L2 Exon 131191468-131191521
[6] = ERMARD Exon 170153383-170153468
[7] = ERMARD Exon 170153413-170153468
[8] = FAM13B Exon 137281917-137282000
[9] = FAM13B Exon 137354644-137354835
[10] = FAM45A Exon 120864276-120864534

What does the source list for `Clc1nc(NCc2ccncc2)c2cc[nH]c2n1` [Compound (I), 2-chloro-N-(pyridin-4-ylmethyl)-7H-pyrrolo[2,3-d]pyrimidin-4-amine]?
T-PSI (EHBP1 Exon 63215066-63215173): 0.133; ΔPSI (EHBP1 Exon 63215066-63215173): −0.103; Effect (EHBP1L1 Exon 65351063-65351236): Unc; T-PSI (EHBP1L1 Exon 65351063-65351236): 0.841; ΔPSI (EHBP1L1 Exon 65351063-65351236): −0.004; Effect (EHMT2 Exon 31856746-31856847): Exc; T-PSI (EHMT2 Exon 31856746-31856847): 0.761; ΔPSI (EHMT2 Exon 31856746-31856847): −0.133; Effect [1]: Exc; T-PSI [1]: 0.622; ΔPSI [1]: −0.138; Effect [2]: Exc; T-PSI [2]: 0.858; ΔPSI [2]: −0.111; Effect (EIF4G2 Exon 10823208-10823321): Unc; T-PSI (EIF4G2 Exon 10823208-10823321): 0.889; ΔPSI (EIF4G2 Exon 10823208-10823321): 0.009; Effect (EIF4H Exon 73604577-73604636): Inc; T-PSI (EIF4H Exon 73604577-73604636): 0.194; ΔPSI (EIF4H Exon 73604577-73604636): 0.113; Effect (ELK1 Exon 47509320-47509425): Exc; T-PSI (ELK1 Exon 47509320-47509425): 0.261; ΔPSI (ELK1 Exon 47509320-47509425): −0.209; Effect (ELMOD3 Exon 85582678-85582839): Unc; T-PSI (ELMOD3 Exon 85582678-85582839): 0.738; ΔPSI (ELMOD3 Exon 85582678-85582839): −0.010; Effect (ELMOD3 Exon 85598563-85598685): Unc; T-PSI (ELMOD3 Exon 85598563-85598685): 0.679; ΔPSI (ELMOD3 Exon 85598563-85598685): −0.009; Effect (ELN Exon 73471970-73472026): Exc; T-PSI (ELN Exon 73471970-73472026): 0.531; ΔPSI (ELN Exon 73471970-73472026): −0.151; Effect (ELN Exon 73474470-73474514): Exc; T-PSI (ELN Exon 73474470-73474514): 0.821; ΔPSI (ELN Exon 73474470-73474514): −0.167; Effect (ELOVL1 Exon 43830857-43831047): Exc; T-PSI (ELOVL1 Exon 43830857-43831047): 0.841; ΔPSI (ELOVL1 Exon 43830857-43831047): −0.113; Effect (EMC4 Exon 34520630-34520790): Unc; T-PSI (EMC4 Exon 34520630-34520790): 0.806; ΔPSI (EMC4 Exon 34520630-34520790): −0.001; Effect (EMC4 Exon 34520638-34520790): Unc; T-PSI (EMC4 Exon 34520638-34520790): 0.655; ΔPSI (EMC4 Exon 34520638-34520790): −0.002; Effect (ENC1 Exon 73933319-73933443): Unc; T-PSI (ENC1 Exon 73933319-73933443): 0.128; ΔPSI (ENC1 Exon 73933319-73933443): −0.006; Effect (ENC1 Exon 73933390-73933526): Inc; T-PSI (ENC1 Exon 73933390-73933526): 0.356; ΔPSI (ENC1 Exon 73933390-73933526): 0.248; Effect (ENOSF1 Exon 678696-678737): Exc; T-PSI (ENOSF1 Exon 678696-678737): 0.804; ΔPSI (ENOSF1 Exon 678696-678737): −0.138; Effect (EP400 Exon 132448077-132448187): Unc; T-PSI (EP400 Exon 132448077-132448187): 0.214; ΔPSI (EP400 Exon 132448077-132448187): −0.006; Effect [3]: Exc; T-PSI [3]: 0.759; ΔPSI [3]: −0.119; Effect [4]: Exc; T-PSI [4]: 0.839; ΔPSI [4]: −0.101; Effect [5]: Inc; T-PSI [5]: 0.713; ΔPSI [5]: 0.411; Effect (EPS15L1 Exon 16487933-16488065): Unc; T-PSI (EPS15L1 Exon 16487933-16488065): 0.852; ΔPSI (EPS15L1 Exon 16487933-16488065): −0.006; Effect (ERBB2IP Exon 65370852-65371058): Exc; T-PSI (ERBB2IP Exon 65370852-65371058): 0.245; ΔPSI (ERBB2IP Exon 65370852-65371058): −0.190; Effect (ERLEC1 Exon 54035436-54035597): Exc; T-PSI (ERLEC1 Exon 54035436-54035597): 0.745; ΔPSI (ERLEC1 Exon 54035436-54035597): −0.112; Effect (ERMAP Exon 43305704-43305724): Exc; T-PSI (ERMAP Exon 43305704-43305724): 0.830; ΔPSI (ERMAP Exon 43305704-43305724): −0.151; Effect [6]: Unc; T-PSI [6]: 0.108; ΔPSI [6]: 0.005; Effect [7]: Unc; T-PSI [7]: 0.108; ΔPSI [7]: 0.005; Effect (ETHE1 Exon 44030353-44030501): Exc; T-PSI (ETHE1 Exon 44030353-44030501): 0.637; ΔPSI (ETHE1 Exon 44030353-44030501): −0.216; Effect (ETHE1 Exon 44030667-44030811): Exc; T-PSI (ETHE1 Exon 44030667-44030811): 0.882; ΔPSI (ETHE1 Exon 44030667-44030811): −0.108; Effect (EVA1A Exon 75753238-75753325): Unc; T-PSI (EVA1A Exon 75753238-75753325): 0.533; ΔPSI (EVA1A Exon 75753238-75753325): −0.005; Effect (EVC Exon 5819938-5819981): Exc; T-PSI (EVC Exon 5819938-5819981): 0.376; ΔPSI (EVC Exon 5819938-5819981): −0.496; Effect (EVI5L Exon 7921978-7922010): Exc; T-PSI (EVI5L Exon 7921978-7922010): 0.479; ΔPSI (EVI5L Exon 7921978-7922010): −0.197; Effect [8]: Unc; T-PSI [8]: 0.874; ΔPSI [8]: 0.000; Effect [9]: Unc; T-PSI [9]: 0.861; ΔPSI [9]: 0.001; Effect (FAM21C Exon 46272721-46272873): Inc; T-PSI (FAM21C Exon 46272721-46272873): 0.663; ΔPSI (FAM21C Exon 46272721-46272873): 0.243; Effect (FAM35A Exon 88935646-88935852): Unc; T-PSI (FAM35A Exon 88935646-88935852): 0.743; ΔPSI (FAM35A Exon 88935646-88935852): 0.006; Effect [10]: Unc; T-PSI [10]: 0.664; ΔPSI [10]: 0.009; Effect (FAM104A Exon 71208817-71208879): Exc; T-PSI (FAM104A Exon 71208817-71208879): 0.197; ΔPSI (FAM104A Exon 71208817-71208879): −0.113
